Experimental data taken from PubChem BioAssay AID977622 (Broad Institute, 2014).
The list shows a part of the results. Further columns of the screen follow, without active or inactive calls.

Experiments:
[1] = growth inhibition of wild-type GFP E. coli, dose response, h38 mutant RFP, cherry-pick (AID 977622); conditions: E. coli mixed culture, 24 h, total growth OD600 at 50 uM
[2] = system: E. coli h38 humanized mutant ribosome RFP fluorescence, mixed culture, 24 h; assay: as above; conditions: h38 mutant RFP at 50 uM

Row | SMILES | activity change [1] [%] | activity change [2] [%]
1 | O=C(Nc1nc(-c2ccccc2)cs1)c1ccccc1F | -60.7 | –
2 | Cc1cccc(SCC(=O)Nc2ccccc2[N+](=O)[O-])c1 | -14.7 | -20.4
3 | O=C(OCC(=O)N1CCOCC1)c1cccc(S(=O)(=O)N2CCCc3ccccc32)c1 | -16.1 | 12.1
4 | Cc1cccc(-c2ccc([C@@H]3[C@@H](CO)N4CCCCN(S(=O)(=O)c5ccccc5C)C[C@H]34)cc2)c1 | -25.2 | 20.3
5 | CCc1nnc(NC(=O)CSc2ncc(-c3ccccc3)[nH]2)s1 | -2.2 | -10.1
6 | O=C(Cc1cccc(NC(=O)C2CCN(C(=O)C3CCCCC3)CC2)c1)Nc1cccc(C(=O)N2CCCC2)c1 | -22.2 | 3.23
7 | CC[N+](CC)(CC#Cc1ccccc1)CC#Cc1ccccc1 | -31 | 37.4
8 | COc1cccc(NC(=O)C2CCC(CNS(=O)(=O)c3cccc4cccnc34)CC2)c1 (configuration not stated) | -14.4 | 5.19
9 | Cc1ccsc1C(=O)N1CCCC(C(=O)c2cc(F)ccc2F)C1 (configuration not stated) | -20.1 | -3.1
10 | CCN(CC)S(=O)(=O)c1cccc(NC(=O)COc2ccc(F)cc2Br)c1 | -91 | -11.5
11 | CCc1nc2ccccc2n1CCc1ccccc1 | -33.5 | 23.4
12 | CC1CN(CC(=O)Nc2nc3ccccc3s2)CC(C)O1 (configuration not stated) | -12.8 | –
13 | CCc1cc2ccc(OC)cc2nc1SCC(=O)N1CCN(C(=O)c2ccco2)CC1 | -52.8 | –
14 | Cc1ccc(-n2nnnc2-c2ccccc2Br)cc1 | -48.2 | -12.7
15 | N#Cc1cccc(-c2ccc3c(c2)[C@@H]2[C@@H](CCN2S(=O)(=O)c2cccc(F)c2)[C@H](CO)N3)c1 | -51.2 | -28.4
16 | O=C(CSc1nc2scc(-c3ccccc3)c2c(=O)[nH]1)N1CCCCC1 | -57.3 | -28.3
17 | NS(=O)(=O)c1ccc(CCNC(=O)CCCCCNc2nc(=S)[nH]c3ccccc23)cc1 | -10 | –
18 | COC(=O)CNC(=O)COC(=O)c1ccc(Cl)nc1 | -25.5 | –
19 | COC(=O)c1nc(-c2ccc(C)cc2)[nH]c1C(C)(C)C | -10.1 | -12.6
20 | CCCCNc1ccc2c(c1)OC[C@@H](Cc1ccccc1)NS2(=O)=O | -72.5 | 32.4
21 | CCOC(=O)CCSc1n[nH]c(=S)s1 | -8.54 | 23.6
22 | COc1ccc(C2=Nc3ccccc3NC(=O)C2N(C(=O)c2ccnc3ccccc23)c2ccccc2)cc1 (configuration not stated) | -55.1 | 7.44

Row | SMILES | activity change [1] [%] | activity change [2] [%]
23 | C[C@@H]1CCCCO[C@H](CN(C)C(=O)CCCN(C)C)[C@H](C)CN([C@H](C)CO)C(=O)c2cc(NC(=O)Nc3cccc4ccccc34)ccc2O1 | -3.82 | 21.3
24 | COc1ccc(OC)c(-c2nnc3n2N=C(c2ccc(OC)c(OC4CCOC4)c2)CS3)c1 (configuration not stated) | -44.8 | –
25 | CSc1nc2nc3c(cc2c(=O)n1-c1ccccc1C)CCCC3 | -10.5 | -3.69
26 | COc1cccc(-c2ccc([C@@H]3[C@H](CO)N4CCCCN(S(=O)(=O)c5cccs5)C[C@@H]34)cc2)c1 | -72.7 | -53.6
27 | O=C(c1cc2cc(F)ccc2[nH]1)N1CCN(Cc2ccc3c(c2)OCO3)CC1 | -81.6 | 15.1
28 | Cc1ccc(C(=O)NCC(=O)OCC(=O)Nc2cccc(S(=O)(=O)N3CCCC3)c2)cc1C | -2.77 | -1.43
29 | Fc1ccccc1C1CCN(Cc2nc(CC3CC3)no2)C1 (configuration not stated) | -8.44 | –
30 | CCOC(=O)c1ccc(CC(=O)c2oc3cc(O)ccc3c2C)o1 | -26.8 | 15.6
31 | C[C@@H]1CN([C@@H](C)CO)C(=O)c2cc(NC(=O)Nc3cccc4ccccc34)ccc2O[C@@H](C)CCCCO[C@@H]1CN(C)C(=O)CCCN(C)C | -4.93 | 10.1
32 | CC1(c2ccc3ccccc3c2)NC(=O)N(CC(=O)N2CCN(c3ccccc3O)CC2)C1=O (configuration not stated) | -5.96 | -12.2
33 | CN(C(=O)c1cccc(NC(=O)Cc2cccc(NC(=O)C3CCN(C(=O)CCc4ccccc4)CC3)c2)c1)C1CC1 | -1.07 | -21.7
34 | O=C(Cn1cc(COc2c(F)c(F)cc(F)c2F)nn1)c1ccc(O)cc1 | -37 | 3.12
35 | Cc1ccc(CC2C(=O)N(c3cc(Cl)ccn3)C(=O)C2C)cc1 (configuration not stated) | -39.8 | –
36 | N#Cc1nc(-c2ccco2)oc1NCc1ccccc1Cl | -35.7 | 3.29
37 | COC(=O)[C@@H](Cc1c[nH]c2ccccc12)NCc1cccc(B(O)O)c1 | -9.99 | 11.5
38 | COc1ccc(NC(=O)CCS(=O)(=O)c2ccccc2Cl)cc1S(=O)(=O)Nc1ccc(Cl)cc1 | -21.3 | -6.92
39 | c1cc2cc(-c3c(-c4ccc5c(c4)OCO5)noc3-c3ccsc3)ccc2[nH]1 | 1.06 | -19.5
40 | CC(=O)c1cccc(NC(=O)COC(=O)C2CCCN2C(=O)c2cccs2)c1 (configuration not stated) | -53.1 | –
41 | CS(=O)(=O)c1ccc(C(=O)Nc2nc(-c3ccco3)c(-c3ccco3)s2)cc1 | -15.6 | -26.6
42 | O=C(CSc1nc(C2CCCCC2)nc2ccccc12)N1CCCC1 | -59.9 | 22.8
43 | O=C(O)c1ccc(-c2nc(-c3ccccc3)cs2)cc1 | -31.9 | -23.4
44 | O=C(O)c1ccc(-c2noc(-c3cccc(Cl)c3)n2)cc1 | -61.7 | –

Row | SMILES | activity change [1] [%] | activity change [2] [%]
45 | COc1cc2[nH]c(=S)nc(NCCc3ccc(C)cc3)c2cc1OC | -14.4 | -2.19
46 | COc1ccc(NC(=O)c2sccc2-n2cccc2)cc1 | -29.1 | –
47 | O=C(Cn1cnc2ccccc21)c1ccc(Br)cc1 | -10.5 | 44.5
48 | CC(C)CN1C(=O)c2ccc(C(=O)Nc3ccncc3)cc2C1=O | -36.6 | -46.6
49 | Cc1ccc(C(=O)c2coc3cc([N+](=O)[O-])c(O)c([N+](=O)[O-])c23)cc1 | -57.9 | 5.41
50 | CCOC(=O)C(C)Sc1nc(N2CCOCC2)c2c(c1C#N)CC(C)(C)OC2 (configuration not stated) | -22.2 | -29.9
51 | CC1(C(=O)NS(=O)(=O)c2cccc(Cl)c2)CCN1C(=O)C1(c2ccc(Cl)cc2)CCC1 (configuration not stated) | -21.4 | -10.6
52 | COc1ccc(CN2C(=O)CC(Cc3cc(C)cc(C)c3)C2=O)cc1OC (configuration not stated) | -4.74 | -11.5
53 | COC(=O)c1ccc(CN2CCCC(CO)(Cc3ccccc3F)C2)cc1 (configuration not stated) | -43.3 | 14
54 | CCCc1c(C(=O)Nc2ccc(OC)cc2)cnn1-c1ccccc1 | -37.3 | -36.9
55 | CC(C)Cc1csc(NC(=O)c2ccc(Br)cc2)c1C(=O)O | -65.3 | –
56 | O=C(O)c1ccc(S(=O)(=O)N(Cc2ccc(F)cc2)C2CCCCC2)cc1 | -71.8 | -4.92
57 | O=C(Nc1ccc(Cl)cc1)N1C[C@H]2[C@@H](c3ccccc31)[C@@H](CO)N2C(=O)c1ccccn1 | -45.8 | -5.83
58 | Cc1ccc(C)c(-c2[nH]ncc2CN2CCCC(CO)(Cc3ccccc3C)C2)c1 (configuration not stated) | -31 | 17.7
59 | O=C1c2ccccc2C(=O)N1CCc1c[nH]c2ccccc12 | -13.7 | 9.4
60 | C[C@@H]1CCCCO[C@@H](CN(C)C(=O)CCCN(C)C)[C@@H](C)CN([C@H](C)CO)C(=O)c2cc(NC(=O)Nc3cccc4ccccc34)ccc2O1 | -15.4 | 25
61 | COc1ccccc1-c1ccc(SCc2ccc(F)cc2)nn1 | -8.59 | -2.88
62 | O=C(COC(=O)CCC(=O)c1ccc(F)cc1)Nc1cccc(S(=O)(=O)N2CCCC2)c1 | -25.1 | -15
63 | Cc1cc2nc(SCC(=O)O)nc(C)c2cc1C | -17.4 | –
64 | COc1cc(CCN(C(=O)c2cc3ccccc3[nH]2)C(c2ccccn2)c2nc3ccccc3[nH]2)cc(OC)c1 (configuration not stated) | -11.3 | –
65 | CCc1cc2c(nc1CC)CCCN2Cc1ccc(Br)cc1 | -39.1 | -22.9
66 | Cc1c(C(=O)OCC(=O)N(C)c2ccccc2)oc2ccccc12 | -65 | -10.1

Two entries picked at random from those above:
Row | SMILES | activity change [1] [%] | activity change [2] [%]
6 | O=C(Cc1cccc(NC(=O)C2CCN(C(=O)C3CCCCC3)CC2)c1)Nc1cccc(C(=O)N2CCCC2)c1 | -22.2 | 3.23
42 | O=C(CSc1nc(C2CCCCC2)nc2ccccc12)N1CCCC1 | -59.9 | 22.8

Next part:

Row | SMILES | activity change [1] [%] | activity change [2] [%]
67 | CC1(C(=O)NS(=O)(=O)c2ccc3c(c2)CCO3)CCN1C(=O)c1ccccc1CCc1ccccc1 (configuration not stated) | -8.34 | 1.01
68 | CCC(=O)Nc1nc2ccc(NC(=O)c3cc(OC)c(OC)c(OC)c3)cc2s1 | -42 | -8.47
69 | O=C(COC(=O)c1ccc(O)cc1)Nc1ccccc1 | 5.41 | 11.2
70 | COc1ccc(NS(=O)(=O)c2ccc(Oc3c(C#N)cccc3C#N)cc2)cc1 | -57.1 | -19.7
71 | O=C1NC(CCc2ccccc2)C(=O)N1Cc1cccc2ccccc12 (configuration not stated) | -50.3 | -8.11
72 | CCN(c1ccc(OC)cc1)S(=O)(=O)c1cc(-c2cc(C)no2)ccc1OC | -68.5 | 1.1
73 | Cc1cccc(S(=O)(=O)N2CCCCN3[C@H](CO)[C@H](c4ccc(C#CC(C)C)cc4)[C@H]3C2)c1 | -52.3 | -49.3
74 | COc1cccc(N2CCN(c3ccc(S(=O)(=O)N4CCN(C)CC4)cc3[N+](=O)[O-])CC2)c1 | -40 | -31.9
75 | O=C(Nc1cccc(Cl)c1)N1C[C@H]2[C@@H](c3ccccc31)[C@H](CO)N2Cc1ccncc1 | -13.9 | 31.4
76 | CC1CCCN(c2ccc(C(=O)NCCc3ccccc3)cn2)C1 (configuration not stated) | -41.8 | -30.6
77 | COc1cc(SC)ccc1C(=O)N1CCN(c2ccccc2F)CC1 | -49.1 | –
78 | CC1(C(=O)NS(=O)(=O)c2cccc(C#N)c2)CCN1C(=O)C1(c2ccc(Cl)cc2)CCC1 (configuration not stated) | -29.9 | -19.6
79 | O=S(=O)(Nc1cccc(-c2ccc(N3CCCCCC3)nn2)c1)c1ccc(F)cc1 | -86 | 37.5
80 | O=C(O)CCSc1nc2ccccc2n1-c1ccccc1 | -71.3 | -11.6
81 | COc1ccc(C#Cc2ccc([C@@H]3[C@@H](CO)N4CCCCN(C(=O)Nc5ccccc5F)C[C@H]34)cc2)cc1 | – | 15.2
82 | C(=C\c1ccc(C2[C@H]3CNC[C@@H]2N3Cc2nccs2)cc1)/c1ccccc1 (some centres not stated) | -77.5 | 0.126
83 | C=C(C)Cn1c(=O)c2c(nc3n2CCCN3Cc2ccccc2)n(C)c1=O | -45.8 | 21.4
84 | COc1cccc(OC)c1CNC(=O)CCSCc1ccccc1F | -18.3 | -13.5
85 | Cc1cc(C)cc(NS(=O)(=O)c2c(C(=O)N3CCCCCC3)c(C)n(C)c2C)c1 | -2.59 | -1.45
86 | CC(Nc1ncnc2ccccc12)c1ccccc1 (configuration not stated) | -23.7 | 4.28
87 | CCCCC(=O)N(Cc1ccc2c(c1)OCO2)Cc1nc2ccccc2c(=O)[nH]1 | -46.5 | –
